PubChem BioAssay AID2551 (National Center for Advancing Translational Sciences (NCATS), 2010)
Values joined by “and” are separate entries in the source; they are usually repeats but may differ in a detail not shown here. Identical values can stand only once. The campaign covered roughly 310,000 compounds. About 17,000 (5.5%) were called active. The inconclusive results got no clear call from the source; some entries with a clear call stand among them for comparison. Calls come from the whole dose curve; as a rule, active = well fitted inhibition curve with a large enough effect; inconclusive = small, poorly fitted or top-dose-only effect, or effect the other way; inactive = no such curve, though single readings can be large or run the other way. A potency beside an inconclusive call is a rough fit, not a confirmed value.

The chains behind the UniProt entries cited, without tags or fusion partners. Where a name states a change or a piece, a line headed by the entry shows the natural chain unless it says otherwise.
UniProt P51450: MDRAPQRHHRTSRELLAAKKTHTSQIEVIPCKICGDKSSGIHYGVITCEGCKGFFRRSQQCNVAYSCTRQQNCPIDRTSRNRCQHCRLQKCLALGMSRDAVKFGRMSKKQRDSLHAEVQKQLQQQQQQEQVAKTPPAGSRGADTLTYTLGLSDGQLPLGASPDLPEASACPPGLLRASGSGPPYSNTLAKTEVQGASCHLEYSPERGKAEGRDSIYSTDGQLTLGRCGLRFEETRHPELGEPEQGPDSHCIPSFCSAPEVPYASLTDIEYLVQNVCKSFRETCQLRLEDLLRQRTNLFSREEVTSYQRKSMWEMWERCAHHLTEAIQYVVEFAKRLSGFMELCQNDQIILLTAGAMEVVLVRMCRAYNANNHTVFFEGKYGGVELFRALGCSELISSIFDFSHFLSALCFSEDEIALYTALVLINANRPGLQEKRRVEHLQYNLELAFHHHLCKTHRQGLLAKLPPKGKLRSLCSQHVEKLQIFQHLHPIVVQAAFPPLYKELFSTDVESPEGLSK

molecular target: Nuclear receptor ROR-gamma (Mus musculus) (UniProt P51450); assay: qHTS for inhibitors of ROR gamma transcriptional activity; details: Drosophila S2 Gal4-RORgamma UAS-luciferase reporter, 20 h; activity change, negative = inhibition: at 53.6 µM (top of the series); note: nearly all actives have a fitted effect of over 60% in size
Procedure, shortened: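 Schneider cells (Drosophila), stable Gal4 DBD–ROR gamma + UAS-luc; 1 hr cmpd preincubation; Cu2+ induction 700 uM final; 20 hr ambient; luminescence.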
% is set by controls: 0 for no effect and ±100 for the full control effect; potency is the fitted concentration of half-maximal effect.

Compound | Potency | activity change, negative = inhibition
O=C(c1ccc(Cl)cc1)c1cnc(Nc2ccccc2Cl)s1 | inconclusive: 12.6 µM [inhibitor, single point] | 
CC1(C)NC(=O)N(c2ccc([N+](=O)[O-])c(C(F)(F)F)c2)C1=O | inconclusive: 8.91 µM [activator, partial curve] and inconclusive: 35.5 µM [inhibitor, single point] | 
CCN1CCN(CCNC(=O)c2ccc3c(c2)N(Cc2ccc(F)cc2)C(=O)/C(=C/c2ccccc2)S3)CC1 | active: 15.8 µM | 
COc1ccc(/C=N\NC(=O)c2c(C)nc3ccc(Br)cn23)cc1 | active: 10 µM | 
O=C(c1nsc(Cl)c1Cl)N1CCCCC1 | inconclusive: 3.16 µM [inhibitor, single point] | 
Cc1[nH]c(/C=C2\C(=O)Nc3ccc(S(=O)(=O)N(C)c4cccc(Cl)c4)cc32)c(C)c1C(=O)N1CCN(C)CC1 | inconclusive: 35.5 µM [inhibitor, single point] | 
CCOCCN(C(=O)COC)c1cccc(OC)c1 |  | inactive: -14.2% [at 10 µM]
COc1cc(C)c(Br)cc1S(=O)(=O)NCc1ccncc1 | inconclusive: 10 µM [activator, partial curve] | 
CNC(=O)Cn1nc(-c2ccc(C)cc2)c2ccccc2c1=O | inconclusive: 0.316 µM [inhibitor, full curve, poor fit] | 
COCCN(C(=O)Cc1cccs1)C(C(=O)NC1CCCC1)c1ccc(OC)c(OC)c1 (stereo not given) |  | inactive: -9%
OCCCNc1nc(-c2ccccc2)nc2c1oc1ccccc12 |  | inactive: 12.9%
CC(C)(C)c1ccc(/C=C(\C#N)C(=O)NCCN2CCOCC2)cc1 | inconclusive: 15.8 µM [activator, single point] | 
COc1ccc(O)c(-c2cc(-c3cccs3)[nH]n2)c1 | active: 3.98 µM | 
O=C(COC(=O)c1ccc(Cl)cc1O)Nc1cccnc1Cl | inconclusive: 25.1 µM [activator, single point] | 
Cc1cc(Nc2ccc(Cl)cc2)nc(NCc2ccccc2)n1 | inconclusive: 28.2 µM [inhibitor, single point] | 
O=C(CN1C(=O)C2CC=CCC2C1=O)Nc1ccc(-c2nnc3n2CCCCC3)cc1 (stereo not given) | inconclusive: 0.0794 µM [inhibitor, single point] | 
COc1ccccc1C(=O)C1CCCN(C(=O)C2CCCC2)C1 (stereo not given) | inconclusive: 35.5 µM [activator, single point] | 
CCOC(=O)c1sc(NC(=S)NC(=O)c2ccccc2)nc1C |  | inactive: 10.6%
CN=c1scc(C)n1/N=C/c1ccc2c(c1)OCO2 | inconclusive: 31.6 µM [inhibitor, single point] | 
CCC(C)c1ccc(NC(=O)c2cccs2)cc1 (stereo not given) | inconclusive: 0.891 µM [activator, full curve, poor fit] | 
Cc1ccc(CO/N=C\Cc2snc(Sc3ncc(C(F)(F)F)cc3Cl)c2C#N)cc1 | inconclusive: 0.501 µM [inhibitor, single point] | 
COc1ccc(/C=C/S(=O)(=O)NCc2ccccc2)cc1OC | inconclusive: 11.2 µM [activator, partial curve] | 
CC(=O)c1c(C)[nH]c(C(=O)N(C)CC(=O)Nc2ccc(Cl)c(C(F)(F)F)c2)c1C | inconclusive: 14.1 µM [activator, single point] | 
CCOc1ccccc1NC(=S)NCC1CCCO1 (stereo not given) | active: 11.2 µM | 

Compound | Potency | activity change, negative = inhibition
C=CCOc1ccc(C2NC(=S)NC3=C2CCc2ccccc23)cc1 (stereo not given) | active: 3.55 µM | 
N#CC12CCCCC1CC1CCCCC1(C#N)N2N (stereo not given) | inconclusive: 15.8 µM [inhibitor, single point] | 
Cc1nnn(C23C[C@@H]4C[C@@H](CC(C(=O)N5CCN(c6ccccc6)CC5)(C4)C2)C3)n1 |  | inactive: -9.31%
Cn1c(CN2CCCCC2)nc2cc(NC(=O)c3ccccc3Cl)ccc21 |  | inactive: -23.2%
O=C(Nc1ncc(Cc2ccc(C(F)(F)F)cc2)s1)c1ccc(-c2cccc([N+](=O)[O-])c2)o1 | active: 5.62 µM | 
Cc1cccc(OCc2nnc(SCC(=O)c3ccccc3)o2)c1 | inconclusive: 35.5 µM [inhibitor, single point] | 
Cc1ccc(C)c(S(=O)(=O)N2CCN(CC(=O)Nc3ccc([N+](=O)[O-])cc3)CC2)c1 | inconclusive: 12.6 µM [activator, partial curve] | 
Cc1ccccc1NC(=O)C1c2ccccc2Oc2ccccc21 | inconclusive: 0.005 µM [activator, full curve, poor fit] | 
COc1cc(/C=C(\C#N)c2ccccn2)ccc1OCc1ccc(Cl)cc1 | inconclusive: 14.1 µM [activator, single point] | 
Cc1ccc(Cc2cnc(NC(=O)/C(C#N)=C/c3ccc(-c4cccc([N+](=O)[O-])c4)o3)s2)cc1 | inconclusive: 20 µM [inhibitor, single point] | 
Cc1cccc(NS(=O)(=O)c2nnc(NC(=O)c3ccccc3F)s2)c1 | inconclusive: 15.8 µM [activator, single point] | 
COc1ccc(NC(=O)Nc2ccc(Br)cn2)cc1OC | inconclusive: 35.5 µM [activator, single point] | 
O=C(c1ccc(N2CCCC2=O)cc1)N1CCN(c2ccccc2F)CC1 |  | inactive: -2.51%
Cc1cccn2c(CNCC3(c4ccccc4)CCCC3)c(C(=O)N3CCOCC3)nc12 |  | inactive: -5.98%
c1cncc(-c2noc(-c3ccc4ccccc4c3)n2)c1 | inconclusive: 11.2 µM [inhibitor, single point] | 
Cc1nnc(NC(=O)c2ccc(S(=O)(=O)N3CC(C)OC(C)C3)cc2)o1 (stereo not given) | active: 4.47 µM | 
COc1ccc(C(=O)N2CCC[C@@]3(CCN(C(=O)Nc4ccccc4)C3)C2)cc1 |  | inactive: -37.9%
CCOC(=O)c1ccc(N/C=C/C(=O)C(C)(C)C)cc1 | inconclusive: 0.282 µM [activator, full curve, poor fit] | 
S=C(NCCc1ccccn1)Nc1ccc(Cl)c(Cl)c1 | active: 5.62 µM | 
CC(C)(C)NC(=O)c1ccc2c(c1)CCO2 |  | inactive: 13.2%
C=CCNC(=S)N/N=C/c1ccc(-c2ccc(Br)cc2)o1 | active: 0.355 µM | 
O=C(O)c1cccc(N2C(=O)CSC2=S)c1 |  | inactive: -41.6%
CC(=O)c1ccc(NC(=S)NCCc2ccccn2)cc1 | inconclusive: 14.1 µM [inhibitor, single point] | 
CC(C)(C)NC(=S)NNC(=O)[C@H]1C[C@@H]1c1ccccc1 | active: 0.562 µM | 

Compound | Potency | activity change, negative = inhibition
COc1ccc(-c2oc3ccccc3c2C(=O)OCc2ccc(O)cc2)cc1 | inconclusive: 35.5 µM [activator, single point] | 
COc1ccccc1Nc1nnc(SCC(=O)c2cc(C)n(CC3CCCO3)c2C)s1 (stereo not given) | inconclusive: 25.1 µM [activator, single point] | 
CCCNC(=S)N1CCC(Cc2ccccc2)CC1 | inconclusive: 20 µM [inhibitor, single point] | 
Cc1nnc(N/N=C/c2ccc(O)c([N+](=O)[O-])c2)[nH]c1=O |  | inactive: -33.1%
O=C(N/N=C/c1ccc([N+](=O)[O-])o1)c1cn(-c2ccccc2)nc1-c1ccccc1 | inconclusive: 8.91 µM [inhibitor, partial curve] | 
CCOC(=O)CN1NC2(CCCC(C)C2)NC1=S (stereo not given) | inconclusive: 15.8 µM [inhibitor, partial curve, poor fit] | 
COc1ccccc1C(=O)Nc1nnc(-c2ccccc2)s1 | inconclusive: 17.8 µM [inhibitor, partial curve, poor fit] | 
CN(c1ccc(C(=O)Nc2cccnc2)cc1)S(=O)(=O)c1ccc(Cl)cc1 | inconclusive: 2.51 µM [activator, full curve] | 
COc1ccc(CCNC(=O)CCCCCNc2nc(=S)[nH]c3ccccc23)cc1OC | inconclusive: 35.5 µM [inhibitor, single point] | 
CC(c1ccccc1F)n1cc(C(=O)NCc2ccncc2)nn1 (stereo not given) | active: 2.82 µM | 
O=C(NCc1nc2ccccc2[nH]1)C1=C[C@H](C2CCCCC2)C[C@H](OCc2ccc(CO)cc2)O1 | inconclusive: 35.5 µM [inhibitor, single point] | 
Cc1c(C)n(Cc2ccccc2)c2ccc(C(=O)OCCCN(C)C)cc12 | inconclusive: 35.5 µM [activator, single point] | 
O=S(=O)(NCc1csc(-c2ccccc2)n1)c1ccc(Cl)s1 | inconclusive: 10 µM [activator, partial curve] | 
CC(C)C(=O)NC(c1ccc(Cl)cc1Cl)c1ccc2cccnc2c1O (stereo not given) | active: 4.47 µM | 
CCOC(=O)N1CCN(C(=O)c2cc(OCC)c(OCC)c(OCC)c2)CC1 | inconclusive: 22.4 µM [inhibitor, single point] | 
COc1ccc(-n2c(=S)[nH]c3cc(C(=O)NCc4ccccc4)ccc3c2=O)c(OC)c1 | active: 20 µM | 
CS(=O)(=O)c1ccc(C(=O)OCc2nnc(-c3ccc(Cl)cc3)o2)cc1[N+](=O)[O-] | active: 10 µM | 
O=C(Nc1ccccc1)Nc1ccc(F)c([N+](=O)[O-])c1 | inconclusive: 11.2 µM [activator, partial curve] | 
CC1CC(NC(=O)C2(C)CC2(Cl)Cl)CC(C)(C)C1 (stereo not given) |  | inactive: 1.68%
COc1cc(NC(=O)NC(C)(C(F)(F)F)C(F)(F)F)cc(OC)c1OC |  | inactive: 21.1%
CCOC(=O)c1c(NC(=O)CSc2nnc(-c3c[nH]c4ccccc34)n2CC)sc2c1CCCC2 | inconclusive: 8.91 µM [activator, partial curve] | 
COc1cccc(C2CC(=O)NC3=C2C(=O)CCC3)c1 (stereo not given) | inconclusive: 31.6 µM [activator, single point] | 
